The results in this text go back to PubChem BioAssay AID248 (DTP/NCI, 2004).

The list shows only some results of the screen, not a fair sample: it gathers tests that were run many times, whatever their T/C, doses with no T/C, and many T/C values between a quarter and a half above the control. Further doses and runs are listed elsewhere. T/C is the treated group as % of the vehicle group. Some entries give survivors of the animals treated and no T/C: the source files T/C as zero there, which appears to mark a toxic dose or a test without result, not a measured value. Some doses without a T/C left all or most animals alive at the check, yet need not have been tolerated: survival well below the control is almost never listed, so the zero probably covers shortened survival too. Survivors were counted at the toxicity check, usually on the fifth day, unless a day is given; later deaths do not show. Schedule codes are those of the source, read here as Q, the interval in days (D) or hours (H), X, the number of doses. Some entries were tested several times; the results are listed from low to high. Some schedules carry Z or #; the key to these is not given. Some structures stand for samples that the source files as different forms (salt, stereo form or complex); doses refer to the form tested. Where survival is the endpoint, this PubChem deposit counts one and a half times the control or more as active, and values a quarter to a half above the control carry no call in these data; other NCI protocols may use other cut-offs.

In the assay the test system is L1210 leukemia ip in BDF1 mice, survival T/C. The assay can be described thus: NCI In Vivo Anticancer Drug Screen. Data for tumor model L1210 Leukemia (intraperitoneal) in B6D2F1 (BDF1) mice. The conditions noted are these: T/C endpoint: mean survival time, higher T/C = longer survival.
Where [1] appears, read: dose: 400.0 mg/kg/injection, schedule: Q04DX002 (ip), vehicle: saline with Tween-80.
Setting [2] is: dose: 150.0 mg/kg/injection, schedule: Q01DX001 (ip), vehicle: saline.
Setting [3] is: dose: 300.0 mg/kg/injection, schedule: Q01DX001 (ip), vehicle: saline.
Where [4] appears, read: dose: 400.0 mg/kg/injection, schedule: Q01DX001 (ip), vehicle: saline.
Setting [5] is: dose: 400.0 mg/kg/injection, schedule: Q04DX003 (ip), vehicle: saline.
[6] abbreviates: dose: 200.0 mg/kg/injection, schedule: Q04DX002 (ip), vehicle: saline.
Setting [7] is: dose: 400.0 mg/kg/injection, schedule: Q01DX009 (ip), vehicle: saline with Tween-80.
The mark [8] stands for this setting: dose: 25.0 mg/kg/injection, schedule: Q04DX002 (ip), vehicle: saline.
Where [9] appears, read: dose: 400.0 mg/kg/injection, schedule: Q04DX002 (ip), vehicle: saline.
The mark [10] stands for this setting: dose: 100.0 mg/kg/injection, schedule: Q04DX002 (ip), vehicle: saline with Tween-80.
[11] abbreviates: dose: 200.0 mg/kg/injection, schedule: Q04DX002 (ip), vehicle: saline with Tween-80.
[12] abbreviates: dose: 400.0 mg/kg/injection, schedule: Q04DX002 (ip), vehicle: Klucel (hydroxypropylcellulose) (HPC).
The mark [13] stands for this setting: dose: 400.0 mg/kg/injection, schedule: Q01DX009 (ip), vehicle: saline.
Setting [14] is: dose: 400.0 mg/kg/injection, schedule: Q01DX009 (ip), vehicle: Klucel (hydroxypropylcellulose) (HPC).

For `NC(N)=NC=O`, under setting [1], the survivor count is 0 of 3.
Regarding `COC(=O)C1=CN=NC1=[N+]=[N-]`, the survivor count by setting is: (dose: 40.0 mg/kg/injection, schedule: Q01DX001 (ip), vehicle: saline) 0 of 6; (dose: 75.0 mg/kg/injection, schedule: Q01DX001 (ip), vehicle: saline) 0 of 6; under setting [2], 0 of 6; under setting [3], 0 of 6.
`O=C(O)C[P+](c1ccccc1)(c1ccccc1)c1ccccc1`: the survivor count by setting is: (dose: 200.0 mg/kg/injection, schedule: Q01DX001 (ip), vehicle: saline) 0 of 4; under setting [4], 1 of 4.
Regarding `c1cnc2c3c(ccc2c1)CN(C1CCCCC1)CO3`, the survivor count (dose: 400.0 mg/kg/injection, schedule: Q04DX003 (ip), vehicle: saline sonified) is reported as 0 of 6.
Take `O=C(O)C(Br)C(Br)C(=O)Nc1cccc(C(F)(F)F)c1` (stereo unspecified): the survivor count is, setting by setting: (dose: 200.0 mg/kg/injection, schedule: Q01DX009 (ip), vehicle: other) 2 of 6; (dose: 400.0 mg/kg/injection, schedule: Q01DX009 (ip), vehicle: other) 0 of 6.
On to `CNCC(O)c1cccc(O)c1` (stereo unspecified), for which the survivor count (dose: 50.0 mg/kg/injection, schedule: Q04DX003 (ip), vehicle: saline) was 1 of 4.
With `CCN(CC)C(C)COC(=O)c1ccc(N)cc1` (stereo unspecified), the survivor count is, setting by setting: (dose: 100.0 mg/kg/injection, schedule: Q04DX003 (ip), vehicle: saline) 6 of 6; (dose: 200.0 mg/kg/injection, schedule: Q04DX003 (ip), vehicle: saline) 0 of 6; under setting [5], 1 of 6.
As for `CCCCCCCCCCCCCCCC[n+]1ccc(C(N)=O)cc1`, the survivor count is, setting by setting: (dose: 100.0 mg/kg/injection, schedule: Q04DX003 (ip), vehicle: saline with Tween-80) 3 of 6; (dose: 200.0 mg/kg/injection, schedule: Q04DX003 (ip), vehicle: saline with Tween-80) 1 of 6; (dose: 400.0 mg/kg/injection, schedule: Q04DX003 (ip), vehicle: saline with Tween-80) 0 of 6.
As to `CCCCCCC(Cl)CCl` (stereo unspecified), the survivor count (dose: 200.0 mg/kg/injection, schedule: Q01DX009 (ip), vehicle: saline) is given as 1 of 6.
In the case of `C=CN1CCCC1=O`, the survivor count under setting [4] is 4 of 4.
Regarding `Nc1cc(S(=O)(=O)O)cc2cc(S(=O)(=O)O)cc(O)c12`, the T/C under setting [6] is 133 % of control.
Turning to `O=C(O)c1ccc(Oc2nc3ccccc3s2)cc1`, the survivor count under setting [7] was 2 of 6.
As for `CC(CNC1CCCCC1)OC(=O)c1ccc(N)cc1` (stereo unspecified), the survivor count by setting is: under setting [2], 0 of 6; under setting [3], 0 of 6.
Consider `CCCC1([N+]2(C)CCCC2)CS(=O)C1CC` (stereo unspecified), for which the survivor count under setting [5] is 1 of 6.
As to `O=c1ccc2c([N+](=O)[O-])cc([N+](=O)[O-])c(O)c2[nH]1`, the survivor count under setting [4] is given as 1 of 4.
Turning to `COC(OC)c1nc(SC)[nH]c(=O)c1C[N+](C)(C)C`, the survivor count under setting [7] is given as 0 of 6.
In the case of `CCN(CC)CCOc1ccc(/C(=C(\Cl)c2ccccc2)c2ccccc2)cc1`, under setting [8], the T/C is 132 % of control. For the same compound, the survivor count is given as 3 of 3 (dose: 100.0 mg/kg/injection, schedule: Q04DX002 (ip), vehicle: saline); 2 of 3 under setting [6]; 0 of 3 under setting [9].
In the case of `[Cl][Sb]([O][Sb]([Cl])([c]1ccccc1)([c]1ccccc1)[c]1ccccc1)([c]1ccccc1)([c]1ccccc1)[c]1ccccc1`, the survivor count is listed as 3 of 3 under setting [10], 1 of 3 under setting [11] and 0 of 3 under setting [1].
On to `Cc1ccc(S(=O)(=O)/C=C\S(=O)(=O)c2ccc(C)cc2)cc1`, for which the survivor count by setting is: (dose: 100.0 mg/kg/injection, schedule: Q04DX003 (ip), vehicle: acetone) 0 of 6; (dose: 200.0 mg/kg/injection, schedule: Q01DX001 (ip), vehicle: acetone) 1 of 6; (dose: 400.0 mg/kg/injection, schedule: Q01DX001 (ip), vehicle: acetone) 0 of 6.
Take `CC(=O)OC1C=CCC2C(=O)c3cc4ccccc4cc3C(=O)C12` (stereo unspecified): the survivor count (dose: 400.0 mg/kg/injection, schedule: Q01DX001 (ip), vehicle: other) is listed as 0 of 4.
Turning to `C[CH2][Pb]([CH2]C)([CH2]C)[N](C#N)C(=N)N`, the survivor count reads like this: (dose: 100.0 mg/kg/injection, schedule: Q04DX002 (ip), vehicle: Klucel (hydroxypropylcellulose) (HPC)) 1 of 3 and 2 of 3; (dose: 200.0 mg/kg/injection, schedule: Q04DX002 (ip), vehicle: Klucel (hydroxypropylcellulose) (HPC)) 0 of 3; under setting [12], 0 of 3.
Consider `CS(=O)(=O)Oc1ccc(S(=O)(=O)F)cc1Cl`, for which the survivor count under setting [12] is on record as 3 of 3.
Consider `COCBr`, for which the survivor count under setting [13] is on record as 0 of 6.
On to `CC1CC1C(N)=O` (stereo unspecified), for which the T/C under setting [9] was 127 % of control.
On to `O=[N+]([O-])c1ccc(OCCN2CCCC2)cc1`, for which the survivor count under setting [3] was 0 of 6.
Consider `N#CC(Cl)(Cl)C(N)=O`, for which the survivor count under setting [8] is reported as 2 of 6; the survivor count (dose: 50.0 mg/kg/injection, schedule: Q04DX002 (ip), vehicle: saline) is recorded as 0 of 6; the survivor count under setting [10] is recorded as 0 of 3; the survivor count under setting [11] is 0 of 3; the survivor count under setting [1] is on record as 0 of 3.
`CCOC(=O)NC1=C(Cl)C(=O)C(NC(=O)OCC)=C(Cl)C1=O`: where the note is “dose: 400.0 mg/kg/injection, schedule: Q04DX003 (ip), vehicle: Klucel (hydroxypropylcellulose) (HPC)”, the survivor count is 5 of 6.
For `CCCCCCCCC/C=N\N=C(N)N`, the survivor count (dose: 480.0 mg/kg/injection, schedule: Q01DX Z (ip), vehicle: carboxymethylcellulose (CMC)) is listed as 3 of 6.
Regarding `COc1ccc(OC(=O)Nc2ccc(Cl)cc2OC)cc1`, the survivor count under setting [14] is listed as 6 of 6.
For the compound `O=C(N/N=C\c1ccc(-c2ccccc2)cc1)N/N=C/c1ccc(-c2ccccc2)cc1`, the survivor count (dose: 400.0 mg/kg/injection, schedule: Q04DX003 (ip), vehicle: carboxymethylcellulose (CMC)) is reported as 6 of 6.
As to `COc1ccc(N=C(N)N=C(N)N)cc1`, the survivor count under setting [4] is 2 of 4 and the survivor count under setting [13] is 3 of 6.
Turning to `CCCNC(=O)Oc1ccccc1C(N)=O`, the survivor count under setting [14] is listed as 0 of 6.
Turning to `CCN=C(c1ccc(NC(=O)c2ccc(C(=O)Nc3ccc(C(=NCC)N(CC)C(=O)NC(C)C)cc3)cc2)cc1)N(CC)C(=O)NC(C)C`, the survivor count reads like this: (dose: 12.0 mg/kg/injection, schedule: Q01DX015 (ip), vehicle: methylcellulose (MC)) 5 of 6; (dose: 50.0 mg/kg/injection, schedule: Q01DX015 (ip), vehicle: methylcellulose (MC)) 0 of 6; (dose: 100.0 mg/kg/injection, schedule: Q01DX015 (ip), vehicle: methylcellulose (MC)) 0 of 6; (dose: 200.0 mg/kg/injection, schedule: Q01DX015 (ip), vehicle: methylcellulose (MC)) 0 of 6; (dose: 400.0 mg/kg/injection, schedule: Q01DX015 (ip), vehicle: methylcellulose (MC)) 0 of 6.
Take `N#CCCNC(=O)N(CCC#N)N=O`: the T/C reads like this: (dose: 50.0 mg/kg/injection, schedule: Q01DX Z (ip), vehicle: carboxymethylcellulose (CMC)) 134 and 147 % of control; (dose: 100.0 mg/kg/injection, schedule: Q01DX Z (ip), vehicle: carboxymethylcellulose (CMC)) 139 % of control; (dose: 150.0 mg/kg/injection, schedule: Q01DX Z (ip), vehicle: carboxymethylcellulose (CMC)) 128 % of control. The survivor count (dose: 250.0 mg/kg/injection, schedule: Q01DX Z (ip), vehicle: carboxymethylcellulose (CMC)) was 5 of 6 and the survivor count (dose: 300.0 mg/kg/injection, schedule: Q01DX Z (ip), vehicle: carboxymethylcellulose (CMC)) was 1 of 6.
